Results are given in words; binding and its absence hold for the method and conditions named. Binding seen in cells or lysates may run through a third protein. Here binding means that the protein was enriched with, or labelled near, the bait; the list need not be complete.
B1: Paramyosin (protein, UniProt P35415 1-879)
chain: MSSSQAVRSSKYSYRATSTGPGTADVNIEYIQDLSSLSRLEDKIRLLQDDLEVERELRQRIEREKADLSVQVIQMSERLEEAEGGAEHQFEANRKRDAELLKLRKLLEDVHLESEETTLLLKKKHNEIITDFQEQVEILTKNKARAEKDKAKFQTEVYELLSQIESYNKEKIVSEKHISKLEVSISELNVKIEELNRTVIDISSHRSRLSQENIELTKDVQDLKVQLDTVSFSKSQVISQLEDARRRLEDEDRRRSLLESSLHQVEIELDSVRNQLEEESEARIDLERQLVKANADATSWQNKWNSEVAARAEEVEEIRRKYQVRITELEEHIESLIVKVNNLEKMKTRLASEVEVLIIDLEKSNNSCRELTKSVNTLEKHNVELKSRLDETIILYETSQRDLKNKHADLVRTVHELDKVKDNNNQLTRENKKLGDDLHEAKGAINELNRRLHELELELRRLENERDELTAAYKEAEAGRKAEEQRGQRLAADFNQYRHDAERRLAEKDEEIEAIRKQTSIEIEQLNARVIEAETRLKTEVTRIKKKLQIQITELEMSLDVANKTNIDLQKVIKKQSLQLTELQAHYEDVQRQLQATLDQYAVAQRRLAGLNGELEEVRSHLDSANRAKRTVELQYEEAASRINELTTANVSLVSIKSKLEQELSVVASDYEEVSKELRISDERYQKVQVELKHVVEQVHEEQERIVKLETIKKSLEVEVKNLSIRLEEVELNAVAGSKRIISKLEARIRDLELELEEEKRRHAETIKILRKKERTVKEVLVQCEEDQKNLILLQDALDKSTAKINIYRRQLSEQEGVSQQTTTRVRRFQRELEAAEDRADTAESSLNIIRAKHRTFVTTSTVPGSQVYIQETTRTITE
B2: endogenous Pur α (protein, UniProt Q95RR6 1-274)
chain: MSDLGSGDDGISGSKYNVANMEGSSSRNDFDSSAKGGSGVEQELATKMLQIQSKRFYLDVKQNRRGRFIKVAEIGADGRRSQIYLALSTAAEFRDHLSSFSDYYASLGPPNTDNLPEDGKLKSEMMIKDYRRYYLDLKENARGRFLRVSQTITRGGPRSQIALPAQGMIEFRDALTDLLEEFGANDGGFKGDLPEERHMKVDNKNFYFDIGQNNRGVYMRISEVKNNFRTSITIPEKCWIRFRDIFNDYCEKMKKSSDSITAEINLPTSSNSLK
B3: Glutathione S transferase S1 (protein, UniProt P41043 1-249)
chain: MADEAQAPPAEGAPPAEGEAPPPAEGAEGAVEGGEAAPPAEPAEPIKHSYTLFYFNVKALAEPLRYLFAYGNQEYEDVRVTRDEWPALKPTMPMGQMPVLEVDGKRVHQSISMARFLAKTVGLCGATPWEDLQIDIVVDTINDFRLKIAVVSYEPEDEIKEKKLVTLNAEVIPFYLEKLEQTVKDNDGHLALGKLTWADVYFAGITDYMNYMVKRDLLEPYPALRGVVDAVNALEPIKAWIEKRPVTEV
B4: Sluggish A (protein, UniProt Q04499 31-681)
chain: VAACRSFHQRGSGSTSIAGEGAASESTRGVNGARFLHSGDRPLQASTLVQPEVVSSETVKRSMKQESSQEKNPSPAGSPQRDPLDVSFNDPIAAFKSKTTGELIRAYLVYMICSSEKLVEHNMTLMKLARNLLGQKLFVLLMKSSFYGHFVAGENRHTIVPALERLRSFGVKPILDYSVEEDITQEEAEKREVESSVSSAGDKKEEGSMPQYHVDKSFADRRYKVSSARTYFYLNEATCERNMEIFIKCLEAVSDDDRKAPRAVATGATFGTGITAIKLTALGRPQLLLQLSEVIMRTRKYMEDMVGGQGNVLTHHKTIKDLEKYYATLGDNKDVKEFLNNVTSDKEGILHLFPWSGIVDEDSQLSDTFRVPDPQTGQMRRLISQIPPKEEEMFRNMIRRLNTIVKAAADLDVRIMVDAEQTYFQPAISRITLEMMRKYNKDKAIVFNTYQCYLRETFREVNTDLEQAKRQNFYFGAKLVRGAYMDQERDRAKSLGYPDPVNPTFEATTDMYHRTLSECLRRIKLMKDCDDDARKIGIMVASHNEDTVRFAIQQMKEIGISPEDKVICFGQLLGMCDYITFPLGQAGYSAYKYIPYGPVEEVLPYLSRRAQENKGVLKKIKKEKRLLLSEIRRRLMRGQLFYKPKGNYVPI
B5: Stoned A (protein, UniProt Q24211 1-850)
chain: MLKLPKGLKKKKKKSKKDQELFTEEELEQYKRDLKAKQEAAATKSDAGESDGASSDVEAHHEPVAFNSGLGSGSSSSILNAQQQLSDQNQGAAGGDEEWAKFKALTSGVDSILHKTQDELDRIKKESFYQRLPSAAEKKKQKEEEAARLEAEQQEREKQRLGQIEAQRDKLAEAVVQLSESEEEAGDYEADDIFATDYIEAITSGELQLAVVPDSPVLAEDGPDPFDTAYAEKVIVGADRAKGNKKLVSLGAAVEVLSGRVDREHAVALANPKRKLRKGIQNLLLSESIELADSEAELLAATSNAEPQHNLLDDLDEELSESSVPIDLSVSLHLHLIKHKQPVEEEEELEQKGRENQLLNPDLSEFDSLKDEEDDEFAELAAESLTKKEEVTVVSQVVLPVAQLPTEAFEAGSWAEFEEQSGQEPGKPKRPPPPVRPPTGPHIVPGAIYVSEDEEENPEDDPFNTNYAEQVIKKTTVLEEDDDFDPRAEEHATEPPFLAAPQRDLLAGSATDLSQVVPAPLAPTLSVDQEAEDFDPFDTSAVSALVQPKSTELRFLERELLNYSGLDGVTLKHSLSDQDFDPRADQKEPAAPQVKLEQKETDFDTAQRKSSLSLNIQAKSVGFLVPASDLLGAGNELGASKKPLTPYYAPSDNRLQEREREAEDVDPFDTSHVPEAKLSDIELKHIEKDLISVPANLRHSLSDPDFDPRAPPTPVPAEVLLAVEENINIKVLTPAQDRKKLTNSGGSGKSEEDIDPFDTSIAANLQPGQTELKLLENELLPETKTLVTDVLDVQSDAQELGLGDKVLTPSTHSRPSLPAQDIDPFDTSIAENLAPGEAEIKLLESELIER
B6: Adaptin (protein, UniProt P91926 1-940)
chain: MAPVRGDGMRGLAVFISDIRNCKSKEAEVKRINKELANIRSKFKGDKTLDGYQKKKYVCKLLFIFLLGHDIDFGHMEAVNLLSSNKYSEKQIGYLFISVLVNTNSDLIRLIIQSIKNDLQSRNPVHVNLALQCIANIGSRDMAESFSNEIPKLLVSGDTMDVVKQSAALCLLRLFRSSPDIIPGGEWTSRIIHLLNDQHMGVVTAATSLIDALVKRNPDEYKGCVNLAVSRLSRIVTASYTDLQDYTYYFVPAPWLSVKLLRLLQNYNPVTEEAGVRARLNETLETILNKAQEPPKSKKVQHSNAKNAVLFEAINLIIHSDSEPNLLVRACNQLGQFLSNRETNLRYLALESMCHLATSEFSHEEVKKHQEVVILSMKMEKDVSVRQMAVDLLYAMCDRGNAEEIVQEMLNYLETADYSIREEMVLKVAILAEKYATDYTWYVDVILNLIRIAGDYVSEEVWYRVIQIVINREEVQGYAAKTVFEALQAPACHENMVKVGGYILGEFGNLIAGDSRSAPLVQFKLLHSKYHLCSPMTRALLLSTYIKFINLFPEIRTNIQDVFRQHSNLRSADAELQQRASEYLQLSIVASTDVLATVLEEMPSFPERESSILAVLKKKKPGRVPENEIRESKSPAPLTSAAQNNALVNNSHSKLNNSNANTDLLGLSTPPSNNIGSGSNSNSTLIDVLGDMYGSNSNNNSSAVYNTKKFLFKNNGVLFENEMLQIGVKSEFRQNLGRLGLFYGNKTQVPLTNFNPVLQWSAEDALKLNVQMKVVEPTLEAGAQIQQLLTAECIEDYADAPTIEISFRYNGTQQKFSIKLPLSVNKFFEPTEMNAESFFARWKNLSGEQQRSQKVFKAAQPLDLPGARNKLMGFGMQLLDQVDPNPDNMVCAGIIHTQSQQVGCLMRLEPNKQAQMFRLTVRASKETVTREICDLLTDQF

target: GST-Pur α fusion protein (Drosophila melanogaster) (UniProt Q95RR6); assay: affinity purification with mass spectrometry; GST-Pur α (GST alone as control) on glutathione beads packed as a column; dialysed and cleared wild-type adult fly head extract (20 mM Hepes pH 7.2, 0.1 M NaCl) run through; washed, eluted with 0.2, 0.6 and 2 M NaCl buffers; SDS gel, LC-MS/MS; only the target purified

binding, binds:
B1
B2
B3
B4
B5
B6
